Some entries share one result that the patent states for a list of compounds.
Target: T1, full-length recombinant rat vitamin D receptor (Rattus norvegicus, UniProt P13053)
T1 construct: Full-length recombinant rat receptor was expressed in E. coli; histidine tag (C); made in house; host or cells: E. coli BL21(DE3) Codon Plus RIL
T1 sequence (P13053 1-423): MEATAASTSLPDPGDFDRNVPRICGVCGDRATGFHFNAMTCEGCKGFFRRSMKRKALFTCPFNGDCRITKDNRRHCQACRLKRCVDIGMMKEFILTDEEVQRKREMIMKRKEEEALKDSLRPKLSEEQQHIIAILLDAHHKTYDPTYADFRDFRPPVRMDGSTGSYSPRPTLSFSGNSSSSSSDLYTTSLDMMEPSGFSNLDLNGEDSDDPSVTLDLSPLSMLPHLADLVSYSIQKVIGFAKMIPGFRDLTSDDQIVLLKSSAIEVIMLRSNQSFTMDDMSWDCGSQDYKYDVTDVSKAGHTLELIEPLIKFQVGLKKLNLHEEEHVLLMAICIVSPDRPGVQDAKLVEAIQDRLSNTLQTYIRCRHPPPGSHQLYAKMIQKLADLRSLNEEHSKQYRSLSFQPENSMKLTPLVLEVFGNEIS
Assay: Vitamin D receptor binding (competition with 3H-1,25(OH)2D3)
Protocol: Full-length recombinant rat receptor was expressed in E. coli BL21(DE3) Codon Plus RIL cells and purified to homogeneity using two different column chromatography systems. The first system was a nickel affinity resin that utilizes the C-terminal histidine tag on this protein. The protein that was eluted from this resin was further purified using ion exchange chromatography (S-Sepharose Fast Flow). Aliquots of the purified protein were quick frozen in liquid nitrogen and stored at −80° C. until use. For use in binding assays, the protein was diluted in TEDK50 (50 mM Tris, 1.5 mM EDTA, pH 7.4, 5 mM DTT, 150 mM KCl) with 0.1% Chaps detergent. The receptor protein and ligand concentration was optimized such that no more than 20% of the added radiolabeled ligand was bound to the receptor.
Unlabeled ligands were dissolved in ethanol and the concentrations determined using UV spectrophotometry (1,25(OH)2D3: molar extinction coefficient=18,200 and λmax=265 nm; Analogs: molar extinction coefficient=42,000 and λmax=252 nm). Radiolabeled ligand (^3H-1,25(OH)2D3, ˜159 Ci/mmole) was added in ethanol at a final concentration of 1 nM.
Radiolabeled and unlabeled ligands were added to 100 mcl of the diluted protein at a final ethanol concentration of ≦10%, mixed and incubated overnight on ice to reach binding equilibrium. […] Total binding was determined from the tubes containing only radiolabeled ligand.

Structure (SMILES) | vitamin D receptor binding, fold less effective than calcitriol [fold]
C=C1[C@H](O)CC(=C/C=C2\CCC[C@]3(C)[C@@H]([C@@H](C)CCCC(C)(C)C)CC[C@@H]23)C[C@H]1O [TMM] | 7 to 10
C=C1[C@H](O)CC(=C/C=C2\CCC[C@]3(C)[C@@H]([C@H](C)CC)CC[C@@H]23)C[C@H]1O [(20R)2MbisP] | 7 to 10

Reference: US8188064B2, “Vitamin D analogs for obesity prevention and treatment” (Wisconsin Alumni Research Foundation, priority 2003, dated 2012)
